Measurements published in the supplement of paper PMC12595434, “Development of retinoid nuclear receptor pathway antagonists through targeting aldehyde dehydrogenase 1A3” (iScience, 2025).
Some of the results follow. Single values of this set are uncertain.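 Many melting curves are irregular; where none melted, Tm was taken as 64 °C.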

Amino acid sequences for entries named in this document (tags omitted). A change or cut given only in a name is not applied to a line headed by its entry.
UniProt A0PJW6: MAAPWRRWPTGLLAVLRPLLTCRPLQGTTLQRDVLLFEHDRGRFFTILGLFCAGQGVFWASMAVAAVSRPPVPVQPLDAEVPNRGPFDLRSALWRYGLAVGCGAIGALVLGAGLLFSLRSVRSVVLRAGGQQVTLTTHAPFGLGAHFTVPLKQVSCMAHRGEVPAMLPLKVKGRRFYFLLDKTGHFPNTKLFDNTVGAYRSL
UniProt A2RUC4: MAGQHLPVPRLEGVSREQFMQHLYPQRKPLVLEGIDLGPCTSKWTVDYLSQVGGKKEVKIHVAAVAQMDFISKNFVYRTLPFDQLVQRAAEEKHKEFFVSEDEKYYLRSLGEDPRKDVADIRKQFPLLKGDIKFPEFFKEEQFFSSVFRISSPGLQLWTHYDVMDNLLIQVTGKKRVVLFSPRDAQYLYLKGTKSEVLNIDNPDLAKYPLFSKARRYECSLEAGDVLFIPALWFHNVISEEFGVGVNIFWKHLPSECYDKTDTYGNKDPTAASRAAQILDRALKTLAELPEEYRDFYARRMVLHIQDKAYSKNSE
UniProt A0A096LP01: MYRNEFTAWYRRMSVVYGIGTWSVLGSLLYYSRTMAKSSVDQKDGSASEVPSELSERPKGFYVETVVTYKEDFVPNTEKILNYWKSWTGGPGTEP
UniProt A0AVF1: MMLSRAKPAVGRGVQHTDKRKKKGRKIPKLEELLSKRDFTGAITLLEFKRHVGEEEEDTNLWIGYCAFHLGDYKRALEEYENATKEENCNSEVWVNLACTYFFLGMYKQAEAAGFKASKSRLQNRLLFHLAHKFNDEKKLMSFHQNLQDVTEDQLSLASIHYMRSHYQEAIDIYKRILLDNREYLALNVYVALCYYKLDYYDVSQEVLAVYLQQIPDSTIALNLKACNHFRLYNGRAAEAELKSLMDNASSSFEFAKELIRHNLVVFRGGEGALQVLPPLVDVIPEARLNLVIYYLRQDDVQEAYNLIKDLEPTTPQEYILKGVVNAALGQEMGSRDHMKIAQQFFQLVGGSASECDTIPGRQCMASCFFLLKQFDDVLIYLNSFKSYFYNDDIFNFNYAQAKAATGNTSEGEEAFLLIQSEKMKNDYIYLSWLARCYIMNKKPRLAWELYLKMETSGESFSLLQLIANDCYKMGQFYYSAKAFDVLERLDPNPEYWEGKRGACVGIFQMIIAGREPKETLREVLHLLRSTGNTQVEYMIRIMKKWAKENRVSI
UniProt A0AVT1: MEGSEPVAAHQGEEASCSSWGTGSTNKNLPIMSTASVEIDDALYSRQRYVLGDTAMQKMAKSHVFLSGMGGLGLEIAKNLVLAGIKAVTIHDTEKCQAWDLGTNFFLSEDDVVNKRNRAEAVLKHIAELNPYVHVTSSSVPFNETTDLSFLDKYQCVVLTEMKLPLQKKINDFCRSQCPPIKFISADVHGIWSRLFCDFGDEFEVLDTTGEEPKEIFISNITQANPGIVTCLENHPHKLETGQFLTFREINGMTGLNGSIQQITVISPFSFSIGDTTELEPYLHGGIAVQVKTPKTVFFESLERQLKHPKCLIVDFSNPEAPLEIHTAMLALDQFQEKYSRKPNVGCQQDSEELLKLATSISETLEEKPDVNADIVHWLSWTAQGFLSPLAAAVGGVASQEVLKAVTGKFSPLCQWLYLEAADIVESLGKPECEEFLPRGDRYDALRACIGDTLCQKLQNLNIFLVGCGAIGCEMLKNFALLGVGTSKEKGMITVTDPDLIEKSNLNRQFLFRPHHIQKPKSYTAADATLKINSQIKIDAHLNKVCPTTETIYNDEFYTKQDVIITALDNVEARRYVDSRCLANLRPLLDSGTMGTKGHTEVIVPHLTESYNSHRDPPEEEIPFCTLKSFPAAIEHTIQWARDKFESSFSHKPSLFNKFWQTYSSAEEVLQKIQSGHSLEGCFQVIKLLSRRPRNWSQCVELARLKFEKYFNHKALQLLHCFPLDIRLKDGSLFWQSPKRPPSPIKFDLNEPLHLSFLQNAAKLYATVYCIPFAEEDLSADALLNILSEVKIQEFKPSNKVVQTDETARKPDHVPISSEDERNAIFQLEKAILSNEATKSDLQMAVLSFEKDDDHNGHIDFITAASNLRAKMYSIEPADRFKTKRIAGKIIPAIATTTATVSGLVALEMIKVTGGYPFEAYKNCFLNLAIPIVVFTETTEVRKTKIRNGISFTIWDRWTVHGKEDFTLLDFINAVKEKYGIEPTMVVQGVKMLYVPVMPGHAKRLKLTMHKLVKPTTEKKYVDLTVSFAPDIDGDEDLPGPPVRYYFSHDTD
UniProt A0PK00: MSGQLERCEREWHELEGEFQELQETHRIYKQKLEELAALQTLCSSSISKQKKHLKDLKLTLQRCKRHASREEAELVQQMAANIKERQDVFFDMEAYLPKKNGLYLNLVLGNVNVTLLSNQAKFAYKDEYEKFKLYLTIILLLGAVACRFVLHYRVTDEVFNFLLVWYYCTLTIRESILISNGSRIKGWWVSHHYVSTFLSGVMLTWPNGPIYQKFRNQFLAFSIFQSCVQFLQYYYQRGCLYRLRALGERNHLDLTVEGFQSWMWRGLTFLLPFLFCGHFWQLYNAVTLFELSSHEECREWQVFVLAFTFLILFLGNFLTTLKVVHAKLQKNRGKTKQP
UniProt A1L170: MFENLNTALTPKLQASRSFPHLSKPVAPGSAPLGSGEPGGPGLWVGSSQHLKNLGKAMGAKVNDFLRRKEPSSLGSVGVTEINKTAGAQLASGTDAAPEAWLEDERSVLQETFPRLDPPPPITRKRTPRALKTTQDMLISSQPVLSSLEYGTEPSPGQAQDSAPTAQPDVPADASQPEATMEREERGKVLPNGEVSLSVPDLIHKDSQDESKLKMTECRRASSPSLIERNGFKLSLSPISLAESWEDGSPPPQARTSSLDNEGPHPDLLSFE
UniProt A1L390: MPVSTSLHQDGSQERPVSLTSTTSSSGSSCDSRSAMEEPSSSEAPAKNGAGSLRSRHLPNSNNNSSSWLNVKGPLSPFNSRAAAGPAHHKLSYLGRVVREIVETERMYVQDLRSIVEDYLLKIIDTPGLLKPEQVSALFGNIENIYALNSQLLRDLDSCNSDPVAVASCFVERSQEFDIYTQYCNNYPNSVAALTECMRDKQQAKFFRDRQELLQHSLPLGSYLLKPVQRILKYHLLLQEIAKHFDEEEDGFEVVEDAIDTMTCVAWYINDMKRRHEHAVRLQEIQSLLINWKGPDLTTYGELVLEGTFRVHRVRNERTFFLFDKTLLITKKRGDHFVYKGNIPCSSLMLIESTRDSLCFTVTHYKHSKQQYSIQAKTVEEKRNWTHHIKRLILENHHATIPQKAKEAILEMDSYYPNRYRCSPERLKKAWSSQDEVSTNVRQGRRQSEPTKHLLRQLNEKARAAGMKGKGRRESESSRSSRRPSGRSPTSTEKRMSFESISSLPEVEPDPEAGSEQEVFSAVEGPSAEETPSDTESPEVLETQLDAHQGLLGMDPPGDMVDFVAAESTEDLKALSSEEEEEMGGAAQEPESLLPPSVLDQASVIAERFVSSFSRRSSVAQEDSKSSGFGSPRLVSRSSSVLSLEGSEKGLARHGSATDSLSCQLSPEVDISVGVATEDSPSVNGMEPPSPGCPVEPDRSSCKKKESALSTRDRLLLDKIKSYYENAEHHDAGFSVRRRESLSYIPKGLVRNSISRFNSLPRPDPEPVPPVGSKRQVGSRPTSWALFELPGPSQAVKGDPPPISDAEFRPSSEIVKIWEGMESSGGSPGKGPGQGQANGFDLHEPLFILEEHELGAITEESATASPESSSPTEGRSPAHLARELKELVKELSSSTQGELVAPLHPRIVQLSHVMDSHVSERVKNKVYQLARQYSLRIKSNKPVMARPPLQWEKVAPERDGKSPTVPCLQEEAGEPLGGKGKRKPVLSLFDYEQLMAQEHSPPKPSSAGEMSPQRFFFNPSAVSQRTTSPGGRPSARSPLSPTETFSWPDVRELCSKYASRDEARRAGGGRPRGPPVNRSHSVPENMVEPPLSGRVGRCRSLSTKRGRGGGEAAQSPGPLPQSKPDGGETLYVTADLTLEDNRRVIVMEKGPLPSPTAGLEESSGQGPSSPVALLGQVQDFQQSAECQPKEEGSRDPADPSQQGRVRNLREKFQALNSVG
UniProt A4D1P6: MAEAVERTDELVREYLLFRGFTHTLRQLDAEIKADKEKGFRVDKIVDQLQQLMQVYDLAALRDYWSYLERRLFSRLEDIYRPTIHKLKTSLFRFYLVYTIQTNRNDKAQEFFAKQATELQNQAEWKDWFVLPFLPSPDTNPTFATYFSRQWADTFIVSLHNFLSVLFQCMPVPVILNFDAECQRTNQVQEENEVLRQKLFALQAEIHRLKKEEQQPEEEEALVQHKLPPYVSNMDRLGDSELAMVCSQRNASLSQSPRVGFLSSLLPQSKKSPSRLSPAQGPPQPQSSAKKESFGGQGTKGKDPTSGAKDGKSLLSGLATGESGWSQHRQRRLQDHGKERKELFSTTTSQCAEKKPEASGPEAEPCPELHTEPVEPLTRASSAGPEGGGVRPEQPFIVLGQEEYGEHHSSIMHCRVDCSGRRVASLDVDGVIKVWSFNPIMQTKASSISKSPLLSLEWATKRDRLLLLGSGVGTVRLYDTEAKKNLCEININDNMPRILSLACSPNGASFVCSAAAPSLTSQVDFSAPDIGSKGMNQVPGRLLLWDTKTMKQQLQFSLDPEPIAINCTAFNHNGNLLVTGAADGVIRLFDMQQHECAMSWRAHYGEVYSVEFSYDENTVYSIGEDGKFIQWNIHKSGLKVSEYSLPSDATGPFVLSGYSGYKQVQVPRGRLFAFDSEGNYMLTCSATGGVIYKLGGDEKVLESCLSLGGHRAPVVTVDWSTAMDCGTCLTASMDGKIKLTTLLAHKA
UniProt A4D1U4: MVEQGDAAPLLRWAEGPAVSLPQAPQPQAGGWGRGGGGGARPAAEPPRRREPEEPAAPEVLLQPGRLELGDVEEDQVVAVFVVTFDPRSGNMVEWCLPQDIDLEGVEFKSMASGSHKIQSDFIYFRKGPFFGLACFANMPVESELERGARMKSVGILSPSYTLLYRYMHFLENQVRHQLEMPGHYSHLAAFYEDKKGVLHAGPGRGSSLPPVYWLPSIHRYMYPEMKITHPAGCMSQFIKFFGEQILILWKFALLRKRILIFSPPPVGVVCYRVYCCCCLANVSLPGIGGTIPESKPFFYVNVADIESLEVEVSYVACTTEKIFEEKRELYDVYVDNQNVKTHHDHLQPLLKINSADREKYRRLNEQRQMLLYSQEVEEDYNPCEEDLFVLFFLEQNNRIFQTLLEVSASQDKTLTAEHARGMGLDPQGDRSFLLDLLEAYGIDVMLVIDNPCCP
UniProt A5A3E0, whole entry: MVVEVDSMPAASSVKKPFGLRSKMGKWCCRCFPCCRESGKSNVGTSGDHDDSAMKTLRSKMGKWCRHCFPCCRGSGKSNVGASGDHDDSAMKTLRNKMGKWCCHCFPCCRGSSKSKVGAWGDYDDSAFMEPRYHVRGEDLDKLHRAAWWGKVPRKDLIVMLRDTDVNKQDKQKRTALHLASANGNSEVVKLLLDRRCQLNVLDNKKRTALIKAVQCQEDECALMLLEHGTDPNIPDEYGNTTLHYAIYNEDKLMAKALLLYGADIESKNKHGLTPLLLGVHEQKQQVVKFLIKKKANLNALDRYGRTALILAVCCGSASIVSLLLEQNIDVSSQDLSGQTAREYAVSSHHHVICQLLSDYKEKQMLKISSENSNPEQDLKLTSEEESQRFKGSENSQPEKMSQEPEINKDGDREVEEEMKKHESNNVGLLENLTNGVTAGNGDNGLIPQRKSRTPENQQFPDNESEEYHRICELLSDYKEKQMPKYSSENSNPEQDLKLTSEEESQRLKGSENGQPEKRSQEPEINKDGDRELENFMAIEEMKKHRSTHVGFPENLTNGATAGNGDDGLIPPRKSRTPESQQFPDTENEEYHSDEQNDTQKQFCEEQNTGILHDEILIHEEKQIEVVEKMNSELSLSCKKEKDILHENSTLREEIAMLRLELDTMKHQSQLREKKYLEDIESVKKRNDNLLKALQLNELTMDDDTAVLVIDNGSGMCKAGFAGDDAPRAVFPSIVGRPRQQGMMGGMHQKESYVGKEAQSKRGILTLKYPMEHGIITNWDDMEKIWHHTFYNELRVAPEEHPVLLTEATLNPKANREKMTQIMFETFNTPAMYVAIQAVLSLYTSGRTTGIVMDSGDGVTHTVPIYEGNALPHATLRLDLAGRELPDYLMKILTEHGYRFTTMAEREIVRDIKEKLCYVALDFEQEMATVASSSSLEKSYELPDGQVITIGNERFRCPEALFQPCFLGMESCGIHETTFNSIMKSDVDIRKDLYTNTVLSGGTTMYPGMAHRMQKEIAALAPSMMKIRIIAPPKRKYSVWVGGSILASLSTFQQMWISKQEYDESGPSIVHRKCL

Columns and labels:
Assay in all cases: melting temperature shift (DMSO Tm minus MBE1-treated Tm) in cellular thermal proteome profiling; higher = less thermal stabilization by MBE1 (negative = stabilized by MBE1)
ARHGAP10 = ARHGAP10 (UniProt A1A4S6); conditions: A375
ESYT2 = ESYT2 (UniProt A0FGR8); conditions: A375
GTPBP10 = GTPBP10 (UniProt A4D1E9); conditions: A375
ILVBL = ILVBL (UniProt A1L0T0); conditions: A375
NBAS = NBAS (UniProt A2RRP1); conditions: A375
SBNO1 = SBNO1 (UniProt A3KN83); conditions: A375
SH3PXD2B = SH3PXD2B (UniProt A1X283); conditions: A375
SHTN1 = SHTN1 (UniProt A0MZ66); conditions: A375
TARSL2 = TARSL2 (UniProt A2RTX5); conditions: A375; MBE1 concentration: 100 nM
TMEM223 = TMEM223 (UniProt A0PJW6); conditions: A375
TYW5 = TYW5 (UniProt A2RUC4); conditions: A375
UHRF1BP1L = UHRF1BP1L (UniProt A0JNW5); conditions: A375
UniProt A0A096LP01 = conditions: A375
UniProt A0AV96 = conditions: A375; MBE1 concentration: 100 nM
UniProt A0AVF1 = conditions: A375
UniProt A0AVT1 = conditions: A375
UniProt A0PK00 = conditions: A375
UniProt A1L170 = conditions: A375
UniProt A1L390 = conditions: A375
UniProt A4D1P6 = conditions: A375
UniProt A4D1U4 = conditions: A375
UniProt A5A3E0 = conditions: A375
VWA8 = VWA8 (UniProt A3KMH1); conditions: A375

In the case of `CCc1cnccc1C(=O)Nc1cc2c(cc1F)NC(=O)CC2`, the melting temperature shift (ARHGAP10; MBE1 concentration: 100 nM) is reported as 0.58 °C, the melting temperature shift (ARHGAP10; MBE1 concentration: 1 uM) is reported as 0.281 °C and the melting temperature shift (ESYT2; MBE1 concentration: 100 nM) is reported as 1.06 °C. The melting temperature shift (ESYT2; MBE1 concentration: 1 uM) was 0.0855 °C, the melting temperature shift (GTPBP10; MBE1 concentration: 100 nM) was -0.415 °C and the melting temperature shift (GTPBP10; MBE1 concentration: 1 uM) was 0.0128 °C. It also gave a melting temperature shift (ILVBL; MBE1 concentration: 100 nM) of 0.543 °C, a melting temperature shift (ILVBL; MBE1 concentration: 1 uM) of 0.421 °C and a melting temperature shift (NBAS; MBE1 concentration: 100 nM) of -1.13 °C. For the same compound, the melting temperature shift (NBAS; MBE1 concentration: 1 uM) was -0.725 °C, the melting temperature shift (SBNO1; MBE1 concentration: 100 nM) was 0.702 °C and the melting temperature shift (SBNO1; MBE1 concentration: 1 uM) was -0.0183 °C. For the same compound, the melting temperature shift (SH3PXD2B; MBE1 concentration: 100 nM) was -0.583 °C, the melting temperature shift (SH3PXD2B; MBE1 concentration: 1 uM) was -0.367 °C and the melting temperature shift (SHTN1; MBE1 concentration: 100 nM) was 0.739 °C. The melting temperature shift (SHTN1; MBE1 concentration: 1 uM) was -0.959 °C, the melting temperature shift (TARSL2) was 0.543 °C and the melting temperature shift (TMEM223; MBE1 concentration: 100 nM) was -0.731 °C. For the same compound, the melting temperature shift (TMEM223; MBE1 concentration: 1 uM) was 0.429 °C, the melting temperature shift (TYW5; MBE1 concentration: 100 nM) was -0.154 °C and the melting temperature shift (TYW5; MBE1 concentration: 1 uM) was 0.0872 °C. The melting temperature shift (UHRF1BP1L; MBE1 concentration: 100 nM) was -0.51 °C, the melting temperature shift (UHRF1BP1L; MBE1 concentration: 1 uM) was 0.469 °C and the melting temperature shift (UniProt A0A096LP01; MBE1 concentration: 100 nM) was -0.946 °C. For the same compound, the melting temperature shift (UniProt A0A096LP01; MBE1 concentration: 1 uM) was -0.469 °C, the melting temperature shift (UniProt A0AV96) was -0.932 °C and the melting temperature shift (UniProt A0AVF1; MBE1 concentration: 100 nM) was -1.34 °C. The melting temperature shift (UniProt A0AVF1; MBE1 concentration: 1 uM) was -0.456 °C, the melting temperature shift (UniProt A0AVT1; MBE1 concentration: 100 nM) was 0.757 °C and the melting temperature shift (UniProt A0AVT1; MBE1 concentration: 1 uM) was -0.00611 °C. The melting temperature shift (UniProt A0PK00; MBE1 concentration: 100 nM) was -0.561 °C, the melting temperature shift (UniProt A0PK00; MBE1 concentration: 1 uM) was 0.134 °C and the melting temperature shift (UniProt A1L170; MBE1 concentration: 100 nM) was 0.402 °C. The melting temperature shift (UniProt A1L170; MBE1 concentration: 1 uM) was 0.134 °C, the melting temperature shift (UniProt A1L390; MBE1 concentration: 100 nM) was -0.136 °C and the melting temperature shift (UniProt A1L390; MBE1 concentration: 1 uM) was -1.19 °C. It also gave a melting temperature shift (UniProt A4D1P6; MBE1 concentration: 100 nM) of -1.13 °C, a melting temperature shift (UniProt A4D1P6; MBE1 concentration: 1 uM) of -0.946 °C and a melting temperature shift (UniProt A4D1U4; MBE1 concentration: 100 nM) of -0.691 °C. The melting temperature shift (UniProt A4D1U4; MBE1 concentration: 1 uM) was 0.415 °C, the melting temperature shift (UniProt A5A3E0; MBE1 concentration: 100 nM) was -0.00611 °C and the melting temperature shift (UniProt A5A3E0; MBE1 concentration: 1 uM) was -5.79 °C. The melting temperature shift (VWA8; MBE1 concentration: 100 nM) was -0.621 °C and the melting temperature shift (VWA8; MBE1 concentration: 1 uM) was -1.27 °C.
